Binding data for three molecules are collected here from PMC13483900.

This assay addresses T1, TIN2 (StrepII-TINF2, long isoform) (human) (UniProt Q9BSI4).
T1 sequence: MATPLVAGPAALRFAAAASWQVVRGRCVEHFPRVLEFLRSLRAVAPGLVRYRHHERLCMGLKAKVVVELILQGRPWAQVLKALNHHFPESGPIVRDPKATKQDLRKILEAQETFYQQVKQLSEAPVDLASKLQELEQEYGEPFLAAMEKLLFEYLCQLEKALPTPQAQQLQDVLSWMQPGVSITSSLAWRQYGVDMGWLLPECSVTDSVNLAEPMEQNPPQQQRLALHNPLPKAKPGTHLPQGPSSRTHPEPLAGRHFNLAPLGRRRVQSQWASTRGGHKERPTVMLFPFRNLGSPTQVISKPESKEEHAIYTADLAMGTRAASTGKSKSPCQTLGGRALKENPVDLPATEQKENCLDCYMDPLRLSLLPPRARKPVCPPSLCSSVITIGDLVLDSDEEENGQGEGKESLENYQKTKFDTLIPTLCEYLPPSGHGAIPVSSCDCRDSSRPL
Kind of assay: co-purification (Strep-Tactin affinity, then SEC); subunits co-expressed in Hi5 insect cells; lysate (300 mM NaCl) on Streptactin XT resin via the Strep tag on TIN2, biotin elution, Superose 6 in 50 mM HEPES-KOH pH 7.6, 300 mM NaCl, 10% glycerol, 1 mM DTT; SDS-PAGE and immunoblot of the preparations.

Results are given in words; binding and its absence hold for the method and conditions named. Some results given as binding are weak or reduced against the parent protein; the word gives no strength.

B1: POT1 (protein, UniProt Q9NUX5 1-634)
chain: MSLVPATNYIYTPLNQLKGGTIVNVYGVVKFFKPPYLSKGTDYCSVVTIVDQTNVKLTCLLFSGNYEALPIIYKNGDIVRFHRLKIQVYKKETQGITSSGFASLTFEGTLGAPIIPRTSSKYFNFTTEDHKMVEALRVWASTHMSPSWTLLKLCDVQPMQYFDLTCQLLGKAEVDGASFLLKVWDGTRTPFPSWRVLIQDLVLEGDLSHIHRLQNLTIDILVYDNHVHVARSLKVGSFLRIYSLHTKLQSMNSENQTMLSLEFHLHGGTSYGRGIRVLPESNSDVDQLKKDLESANLTANQHSDVICQSEPDDSFPSSGSVSLYEVERCQQLSATILTDHQYLERTPLCAILKQKAPQQYRIRAKLRSYKPRRLFQSVKLHCPKCHLLQEVPHEGDLDIIFQDGATKTPDVKLQNTSLYDSKIWTTKNQKGRKVAVHFVKNNGILPLSNECLLLIEGGTLSEICKLSNKFNSVIPVRSGHEDLELLDLSAPFLIQGTIHHYGCKQCSSLRSIQNLNSLVDKTSWIPSSVAEALGIVPLQYVFVMTFTLDDGTGVLEAYLMDSDKFFQIPASEVLMDDDLQKSVDMIMDMFCPPGIKIDAYPWLECFIKSYNVTNGTDNQICYQIFDTTVAEDVI
On to B1, for which the binding result is given as “binds”.

B2: RAP1 (protein, UniProt Q9NYB0 1-399)
chain: MAEAMDLGKDPNGPTHSSTLFVRDDGSSMSFYVRPSPAKRRLSTLILHGGGTVCRVQEPGAVLLAQPGEALAEASGDFISTQYILDCVERNERLELEAYRLGPASAADTGSEAKPGALAEGAAEPEPQRHAGRIAFTDADDVAILTYVKENARSPSSVTGNALWKAMEKSSLTQHSWQSLKDRYLKHLRGQEHKYLLGDAPVSPSSQKLKRKAEEDPEAADSGEPQNKRTPDLPEEEYVKEEIQENEEAVKKMLVEATREFEEVVVDESPPDFEIHITMCDDDPPTPEEDSETQPDEEEEEEEEKVSQPEVGAAIKIIRQLMEKFNLDLSTVTQAFLKNSGELEATSAFLASGQRADGYPIWSRQDDIDLQKDDEDTREALVKKFGAQNVARRIEFRKK
For the molecule B2, the binding result is given as “binds”.

B3: TRF1 with the Myb domain deleted, TERF1(D375-431) (protein, UniProt P54274)
chain: MAEDVSSAAPSPRGCADGRDADPTEEQMAETERNDEEQFECQELLECQVQVGAPEEEEEEEEDAGLVAEAEAVAAGWMLDFLCLSLCRAFRDGRSEDFRRTRNSAEAIIHGLSSLTACQLRTIYICQFLTRIAAGKTLDAQFENDERITPLESALMIWGSIEKEHDKLHEEIQNLIKIQAIAVCMENGNFKEAEEVFERIFGDPNSHMPFKSKLLMIISQKDTFHSFFQHFSYNHMMEKIKSYVNYVLSEKSSTFLMKAAAKVVESKRTRTITSQDKPSGNDVEMETEANLDTRKSVSDKQSAVTESSEGTVSLLRSHKNLFLSKLQHGTQQQDLNKKERRVGTPQSTKKKKESRRATESRIPVSKSQPVTPEKLISSDSED
Take B3: the binding result was “binds”.
